Article PMC8072159, “5-Bis-(2,6-difluoro-benzylidene) Cyclopentanone Acts as a Selective 11β-Hydroxysteroid Dehydrogenase one Inhibitor to Treat Diet-Induced Nonalcoholic Fatty Liver Disease in Mice” (Frontiers in Pharmacology, 2021)

How the values were obtained:
KM mice on regular chow = assay: Regular chow mice given WZS08 for 100 days; type: in vivo, mouse; conditions: regular chow plus 2 mg/kg WZS08 (C + W2), mean ± SEM
Method: (§1) The KM mice were randomly divided into six groups, including a regular chow (Group C), HFD (Group M) as a model control group, HFD supplemented with various doses of WZS08, 1 (Group M + W1), 2 (Group M + W2), and 4 (Group + W4) mg/kg, 20 mice per group. Mice were housed five animals per cage. Mice were maintained at a constant temperature (25 ± 3°C) for a 12-h light-dark cycle with free access to food and water. After a week of diet adaptation, the mice were fed with WZS08 dissolved in 1% sodium carboxymethyl cellulose (CMC-Na) or 1% CMC-Na for 100 days alone. Each mouse was gavaged daily with 0.5 ml vehicle (1% CMC-Na) or drug in 1%CMC-Na. By the end of the treatment, the mice were killed by CO2, and the weights of body, liver, epididymal fat, mesenteric fat, and dorsal fat were measured.

HFD-induced NAFLD mice = assay: HFD-induced NAFLD mouse model, WZS08 by gavage for 100 days; type: in vivo; conditions: for Tibial length: mean ± SEM
Method: as §1, with “measured. […]” for “measured.”
Quantitative Real-Time Polymerase Chain Reaction
Total RNA was isolated from mouse liver using Trizol kit according to the manufacturer’s instruction. To reduce genomic DNA contamination, total RNAs were treated with ribonuclease-free deoxyribonuclease I (Thermo Fisher Scientific, Waltham, MA, United States) for 1 h at 37°C. 1 μg RNA was used to synthesize the first strand cDNA by reverse transcription kit. qPCR was carried out using SYBR GREEN as an indicator using Bio-Rad real time PCR system. The standard curve method was adopted as previously described ([Lv et al., 2019]). The Ct values were recorded after a series of diluted standards of mouse liver cDNAs, and the linear equation of Ct values vs. logarithm [dilution of standards] was generated, and the concentration of the target mRNA was calculated according to their Ct value. The result was normalized to Gapdh (encoding GAPDH) and Rps16 as the internal controls. The mRNA levels of Acs2 (encoding acetyl-CoA synthetase2), Hsd11b1 (encoding 11β–HSD1), Ldlr (encoding LDLR), Plin2 (encoding PLIN2), and Plin3 (encoding PLIN3) were evaluated. There were no changes in Gapdh and Rps16 mRNA levels between groups and the test mRNA levels were adjusted to Gapdh. Primer information is listed in Supplementary Table S1.
Measurement of Serum Insulin and Corticosterone Levels and Blood Lipid Levels
On the last day of the experiment, the mice were fasted for 6 h (with free access to drinking water), and then blood and tissues were sampled. Blood samples were collected. The blood sample was centrifuged at 5000 rpm for 10 min to collect the serum, and the serum was frozen at -40°C until use. According to standard clinical protocols, the levels of serum glucose, low-density lipoprotein (LDL), high-density lipoprotein (HDL), total cholesterol, and triglyceride (TG) were measured using Hitachi 7600 biochemical analyzer (Hitachi, Japan). In addition, serum insulin and corticosterone levels were evaluated using the ultrasensitive mouse insulin ELISA kit (CrystalChem, IL, USA) and the commercially available corticosterone ELISA kit (Abnova, Taiwan, China) according to the manufacturers’ instructions.
Protein Expression Analysis
Total hepatic protein extract was obtained as previously described ([Lazaro et al., 2013]). The protein was separated by SDS–PAGE and transferred to a 0.2 μm PVDF membrane. The primary antibodies used were: 11β-HSD1 (rabbit polyclonal antibody, Abcam, catalog # ab39364; being blocked with 11β-HSD1 peptide, #ab101097, San Francisco, CA), ACS2 (Abcam, catalog # ab229958, San Francisco, CA, United States), and β-actin (ACTB, Cell signaling, Danvers, MA, United States). Goat anti-rabbit HRP was used as a secondary antibody. Finally, chemiluminescence emitted by the immunoreactive protein was detected by an ECL advance agent, and visualized with a MicroChemi Imaging system and qualified by a densitometry using AlphaEaseFC (ProteinSample, CA, United States). Relative protein levels were normalized by ACTB.
Before hematoxylin and eosin (HE) staining, the livers of KM mice were fixed in 10% formalin, dehydrated, and embedded in paraffin, as previously described ([Andres-Manzano et al., 2015]). […]

**Q.** Which results are given for `O=C1/C(=C/c2c(F)cccc2F)CC/C1=C\c1c(F)cccc1F` [WZS08, (2E,5E)-2,5-bis(2,6-difluorobenzylidene) Cyclopentanone]?
**A.** Body weight (KM mice on regular chow): 50.70 ± 0.92 g; Dorsal adipose weight (KM mice on regular chow): 0.49 ± 0.045 g; Epididymal adipose weight (KM mice on regular chow): 1.30 ± 0.116 g; Mesenteric adipose weight (KM mice on regular chow): 0.55 ± 0.044 g; Thymic adipose weight (KM mice on regular chow): 0.07 ± 0.01 g; Tibial length (KM mice on regular chow): 2.34 ± 0.046 cm; Total hepatic weight (KM mice on regular chow): 2.03 ± 0.06 g; calorie intake (HFD-induced NAFLD mice; HFD mice, 45 days, vs Group M): did not affect; weight of other tissues (back fat, visceral fat, epididymal fat, thymus) (HFD-induced NAFLD mice; HFD mice, 100 days): not affected; systemic circulatory CORT level (HFD-induced NAFLD mice; HFD mice, serum, 100 days): did not change; total fecal lipid content (HFD-induced NAFLD mice; HFD mice, vs Group M): did not affect; Tibial length (HFD-induced NAFLD mice; HFD plus 1 mg/kg WZS08 (M + W1), 100 days): 2.51 ± 0.053 cm; Tibial length (HFD-induced NAFLD mice; HFD plus 2 mg/kg WZS08 (M + W2), 100 days): 2.41 ± 0.056 cm; Tibial length (HFD-induced NAFLD mice; HFD plus 4 mg/kg WZS08 (M + W4), 100 days): 2.45 ± 0.071 cm
